No constants are given. Whether binding was seen depends on the method and setting. Binding seen in cells or lysates may run through a third protein. Tags and fused reporters may be left off the sequences shown.

Protein sequences, listed by entry. Tags and fused reporters are not part of them. Lines headed by an entry give the natural chain unless they say otherwise; changes in a name come on top.
UniProt Q9NXB0: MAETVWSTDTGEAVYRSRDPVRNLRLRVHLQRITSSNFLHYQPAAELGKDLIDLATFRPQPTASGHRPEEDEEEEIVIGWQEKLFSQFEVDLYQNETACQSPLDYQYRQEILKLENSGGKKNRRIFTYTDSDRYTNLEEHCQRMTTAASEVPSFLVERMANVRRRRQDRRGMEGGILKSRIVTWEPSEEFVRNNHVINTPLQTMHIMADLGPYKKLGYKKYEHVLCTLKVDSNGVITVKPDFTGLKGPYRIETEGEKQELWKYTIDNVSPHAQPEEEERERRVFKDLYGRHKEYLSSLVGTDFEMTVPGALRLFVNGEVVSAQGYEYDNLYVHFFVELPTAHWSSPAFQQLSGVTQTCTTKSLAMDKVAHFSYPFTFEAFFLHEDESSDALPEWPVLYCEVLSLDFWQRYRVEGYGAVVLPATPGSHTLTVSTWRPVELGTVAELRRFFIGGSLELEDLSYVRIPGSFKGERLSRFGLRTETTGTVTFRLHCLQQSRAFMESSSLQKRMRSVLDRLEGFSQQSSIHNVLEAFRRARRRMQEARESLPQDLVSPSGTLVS

The results in this text go back to publication PMC7592398.

This test addresses FLAG-tagged B9 domain-lacking MKS1 (human) (UniProt Q9NXB0). The experiment in a line: co-IP; transfected HEK293T cells; lysis in 20 mM Tris-HCl pH 7.5, 150 mM NaCl, 0.5 mM EDTA, 0.5% Triton X-100; FLAG-MKS1 variants captured on FLAG M2 beads 2 h at 4°C, eluted with 3xFLAG peptide; blot with anti-FLAG and anti-HA.

B1: HA-tagged B9D2 (protein, UniProt Q9BPU9 1-175)
chain: MAEVHVIGQIIGASGFSESSLFCKWGIHTGAAWKLLSGVREGQTQVDTPQIGDMAYWSHPIDLHFATKGLQGWPRLHFQVWSQDSFGRCQLAGYGFCHVPSSPGTHQLACPTWRPLGSWREQLARAFVGGGPQLLHGDTIYSGADRYRLHTAAGGTVHLEIGLLLRNFDRYGVEC
Turning to B1, the binding entry is listed as “no binding”.
